ChEMBL document CHEMBL4303082, “A Large-scale Drug Repositioning Survey for SARS-CoV-2 Antivirals” (2020)

Tested on: SARS-CoV-2
Assay: Determination of antiviral efficacy in high-content imaging assay in Vero E6 cells infected with SARS-CoV-2 (USA-WA1/2020 isolate) at MOI 0.75 after 24 hrs
Assay type: functional, organism-based, Chlorocebus sabaeus
Settings: Severe acute respiratory syndrome coronavirus 2, Vero C1008, 24 h

Structure (SMILES): COc1ccc(CCN2CCC(Nc3nc4ccccc4n3Cc3ccc(F)cc3)CC2)cc1 [ASTEMIZOLE]
- EC50: 1100 nM
